Measurements reported in PubChem BioAssay AID1671195 (Yale University, 2021).

Assay: 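Regulators of LDL receptor activity judged by labelled LDL uptake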 (primary screen)
System: human Huh7 hepatoma cells
Reagents: siRNA pool against human genes, 18 nM
Duration: about 2 to 2.5 days of knockdown, then 8 h LDL uptake
Conditions: DiI-labelled LDL at 30 µg/ml for 8 h, in lipoprotein-deficient serum medium
Read-out: 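Fluorescent LDL signal imaged in cells, scaled to the plate median, robust z-score for each replicate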
Reading the numbers: robust z-score: higher = more LDL uptake after knockdown
Hit rule: 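a gene counts as active if at least two replicate z-scores exceed ±2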
In all, the deposit lists about 22,000 reagents; below is an unselected part. About 1,510 of them (6.9%) count as active. 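Active includes knockdowns raising or lowering LDL uptake; positive z-scores mean more uptake, negative mean less.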 Unmarked entries are inactive.

The opening 7 entries as a preview:
| gene symbol | robust z-score, replicate 1 | robust z-score, replicate 2 | robust z-score, replicate 3 |
| --- | --- | --- | --- |
| AZGP1 | 1.67 | 1.58 | 2.94 |
| CPQ | -0.713 | -1.02 | -0.887 |
| DEMA1 | -0.511 | -0.981 | -0.672 |
| IGF1R | 0.975 | 0.142 | 1.79 |
| ABI1 | 0.473 | -1.16 | 1.85 |
| CLEC20A | 0.714 | 0.421 | 0.509 |
| WFDC3 | -1.11 | -1.78 | -1.39 |

The listing, from the first entry:
| gene symbol | robust z-score, replicate 1 | robust z-score, replicate 2 | robust z-score, replicate 3 |
| --- | --- | --- | --- |
| AZGP1 | 1.67 | 1.58 | 2.94 |
| CPQ | -0.713 | -1.02 | -0.887 |
| DEMA1 | -0.511 | -0.981 | -0.672 |
| IGF1R | 0.975 | 0.142 | 1.79 |
| ABI1 | 0.473 | -1.16 | 1.85 |
| CLEC20A | 0.714 | 0.421 | 0.509 |
| WFDC3 | -1.11 | -1.78 | -1.39 |
| VPS53 | 1.34 | 1.47 | 1.17 |
| C14orf119 | 0.532 | 2.39 | -0.669 |
| HCN1 | 1.79 | 0.62 | 1.24 |
| ADGRG2 | 1.82 | -0.175 | 0.972 |
| CDC16 | -0.937 | -0.622 | -0.544 |
| MTTP | 1.07 | 0.36 | 0.979 |
| THY1 | 0.488 | 0.277 | 1.34 |
| HPX | 0.633 | 0.837 | 0.602 |
| PLEKHF2 | -1.16 | -0.856 | -0.703 |
| GOPC | 0.326 | 1.63 | 1.4 |
| LCN12 | 0.56 | 0.442 | 0.0971 |
| BCLAF1 | 0.569 | 0.353 | 1.51 |
| LOC387789 (retired record) | 0.901 | 2.71 | 1 |
| LOC389636 (retired record) | 2.02 | 1.8 | 1.14 |
| KCNK13 | -1.82 | -1.73 | -1.63 |
| STOX1 | -0.456 | -0.637 | -0.716 |
| QNG1 | -0.3 | -0.531 | -0.641 |
| AQP5 | -0.363 | 0.00842 | -0.815 |
| PAF1 | -1.77 | -1.71 | -1.72 |
| LINC01141 | 0.138 | 0 | 0.351 |
| KRTAP15-1 | -0.575 | -0.277 | -0.6 |
| LOC388746 (retired record) | 0.964 | 0.484 | 0.827 |
| LOC440477 (retired record) | -0.535 | -0.683 | -0.893 |
| LOC440262 (retired record) | -1.2 | -1.01 | -1.08 |
| DNAJC12 | 0.943 | 0.894 | 1.38 |
| RPH3A | 1.77 | 0.84 | 0.559 |
| LINC01567 | -0.159 | 0.00754 | -0.342 |
| ZNF275 | 0.201 | 1.06 | 0.495 |
| VPS37C | -1.08 | -2.16 | -0.261 |
| LOC440923 (retired record) | 0.158 | 0.0832 | 0.222 |
| ASB7 | 3.8 (active) | 1.75 | 6.02 |
| TXNDC5 | -0.253 | -0.321 | -0.732 |
| TCL6 | 1.55 | 1.85 | 2.76 |
| MKNK2 | 0.031 | 0.885 | 0.349 |
| IL20RA | -0.911 | -1.54 | -1.06 |
| FAM201A | 0.531 | 1.53 | 1.07 |
| STYXL2 | -1.02 | -0.719 | -0.942 |
| LOC441819 (retired record) | -1.44 | -1.46 | -1.84 |
| MTFR1L | 0.0166 | -1.45 | 2.28 |
| CD14 | -0.248 | -0.917 | 0.239 |
| MAP2K6 | 1.23 | 0.509 | 1.01 |
| AVPI1 | 0.379 | 0.211 | 0.199 |
| CNOT4 | 0.774 | 0.725 | 1.42 |
| CNN3-DT | 0.992 | 0.838 | 1.14 |
| PGPEP1 | 1.45 | 1.3 | 1.24 |
| TMEM39A | 0.134 | -0.701 | -1.46 |
| PRPF4 | 4.07 (active) | 1.66 | 2.45 |
| LOC441653 (retired record) | -0.348 | -0.91 | -0.658 |
| LY9 | 0.547 | -1.32 | 0.0785 |
| LINC01599 | -0.285 | 0.138 | -0.29 |
| GDF11 | 0.359 | -0.937 | -0.561 |
| RCOR1 | 1.45 | 0.426 | 0.959 |
| ZFHX4 | 0.386 | 0.321 | -0.188 |
| GPR152 | 0.142 | -0.245 | 0.144 |
| LOC401085 (retired record) | 0.547 | 0.312 | 0.516 |
| ASCL1 | -0.577 | -1.15 | -1.46 |
| ERFL | -0.938 | -0.834 | -0.994 |
| SLC35B3 | -1.9 | -1.04 | -0.989 |
| LOC388519 (retired record) | 1.78 | 1.34 | 1.83 |
| IFT70B | 0.848 | 0.404 | -0.506 |
| LOC440789 (retired record) | -0.307 | -0.384 | -0.308 |
